Test results as given in the supplement of paper PMC8728848.
The other results are listed elsewhere or left out.

Experiments:
Test in all cases: glycan array binding signal (z-score within array); higher = stronger binding
Details in all cases: glycan notation: IUPAC condensed, linker removed
[1] = target: Gal(b1-4)GlcNAc(b1-2)Man(a1-6)[Man(a1-3)]Man(b1-4)GlcNAc(b1-4)GlcNAc
In short: (§1)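 The Consortium for Functional Glycomics database supplied 3228 glycan arrays, of which those lacking an available protein sequence were dropped. The binding signal, a within-array Z-score, was averaged across arrays of the same protein sequence and across linkers. Negative scores can be read as non-binding.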

[2] = target: Gal(b1-4)GlcNAc(b1-2)[Gal(b1-4)GlcNAc(b1-4)]Man(a1-3)[Gal(b1-4)GlcNAc(b1-2)Man(a1-6)]Man(b1-4)GlcNAc(b1-4)GlcNAc
In short: as §1

[3] = target: Gal(b1-4)GlcNAc(b1-2)[Gal(b1-4)GlcNAc(b1-4)]Man(a1-3)[Gal(b1-4)GlcNAc(b1-2)[Gal(b1-4)GlcNAc(b1-6)]Man(a1-6)]Man(b1-4)GlcNAc(b1-4)GlcNAc
In short: as §1

[4] = target: Gal(b1-4)GlcNAc(b1-2)[Gal(b1-4)GlcNAc(b1-4)]Man(a1-3)[GlcNAc(b1-4)][Gal(b1-4)GlcNAc(b1-2)Man(a1-6)]Man(b1-4)GlcNAc(b1-4)GlcNAc
In short: as §1

[5] = target: Gal(b1-4)GlcNAc(b1-2)[Gal(b1-4)GlcNAc(b1-4)]Man(a1-3)[GlcNAc(b1-4)][Gal(b1-4)GlcNAc(b1-2)[Gal(b1-4)GlcNAc(b1-6)]Man(a1-6)]Man(b1-4)GlcNAc(b1-4)GlcNAc
In short: as §1

[6] = target: Gal(b1-4)GlcNAc(b1-2)[Gal(b1-4)GlcNAc(b1-6)]Man(a1-6)[Gal(b1-4)GlcNAc(b1-2)Man(a1-3)]Man(b1-4)GlcNAc(b1-4)GlcNAc
In short: as §1

[7] = target: Gal(b1-4)GlcNAc(b1-2)[Gal(b1-4)GlcNAc(b1-6)]Man(a1-6)[Gal(b1-4)GlcNAc(b1-2)Man(a1-3)]Man(b1-4)GlcNAc(b1-4)[Fuc(a1-6)]GlcNAc
In short: as §1

[8] = target: Gal(b1-4)GlcNAc(b1-2)[Gal(b1-4)GlcNAc(b1-6)]Man(a1-6)[GlcNAc(b1-4)][Gal(b1-4)GlcNAc(b1-2)Man(a1-3)]Man(b1-4)GlcNAc(b1-4)GlcNAc
In short: as §1

[9] = target: Gal(b1-4)GlcNAc(b1-2)[Gal(b1-4)GlcNAc(b1-6)]Man(a1-6)[GlcNAc(b1-4)][Gal(b1-4)GlcNAc(b1-2)[Gal(b1-4)GlcNAc(b1-4)]Man(a1-3)]Man(b1-4)GlcNAc(b1-4)[Fuc(a1-6)]GlcNAc
In short: as §1

[10] = target: Gal(b1-4)GlcNAc(b1-3)Gal(b1-3)GalNAc
In short: as §1

[11] = target: Gal(b1-4)GlcNAc(b1-3)Gal(b1-3)GlcNAc
In short: as §1

[12] = target: Gal(b1-4)GlcNAc(b1-3)Gal(b1-4)Glc
In short: as §1

[13] = target: Gal(b1-4)GlcNAc(b1-3)Gal(b1-4)GlcNAc
In short: as §1

[14] = target: Gal(b1-4)GlcNAc(b1-3)Gal(b1-4)GlcNAc(b1-2)Man(a1-3)[Gal(b1-4)GlcNAc(b1-3)Gal(b1-4)GlcNAc(b1-2)Man(a1-6)]Man(b1-4)GlcNAc(b1-4)GlcNAc
In short: as §1

[15] = target: Gal(b1-4)GlcNAc(b1-3)Gal(b1-4)GlcNAc(b1-2)Man(a1-3)[Gal(b1-4)GlcNAc(b1-3)Gal(b1-4)GlcNAc(b1-2)Man(a1-6)]Man(b1-4)GlcNAc(b1-4)[Fuc(a1-6)]GlcNAc
In short: as §1

[16] = target: Gal(b1-4)GlcNAc(b1-3)Gal(b1-4)GlcNAc(b1-2)[Gal(b1-4)GlcNAc(b1-3)Gal(b1-4)GlcNAc(b1-6)]Man(a1-6)[Gal(b1-4)GlcNAc(b1-3)Gal(b1-4)GlcNAc(b1-2)Man(a1-3)]Man(b1-4)GlcNAc(b1-4)GlcNAc
In short: as §1

[17] = target: Gal(b1-4)GlcNAc(b1-3)Gal(b1-4)GlcNAc(b1-2)[Gal(b1-4)GlcNAc(b1-3)Gal(b1-4)GlcNAc(b1-6)]Man(a1-6)[Gal(b1-4)GlcNAc(b1-3)Gal(b1-4)GlcNAc(b1-2)Man(a1-3)]Man(b1-4)GlcNAc(b1-4)[Fuc(a1-6)]GlcNAc
In short: as §1

[18] = target: Gal(b1-4)GlcNAc(b1-3)Gal(b1-4)GlcNAc(b1-3)Gal(b1-4)GlcNAc
In short: as §1

[19] = target: Gal(b1-4)GlcNAc(b1-3)Gal(b1-4)GlcNAc(b1-3)Gal(b1-4)GlcNAc(b1-2)Man(a1-3)[Gal(b1-4)GlcNAc(b1-3)Gal(b1-4)GlcNAc(b1-3)Gal(b1-4)GlcNAc(b1-2)Man(a1-6)]Man(b1-4)GlcNAc(b1-4)GlcNAc
In short: as §1

[20] = target: Gal(b1-4)GlcNAc(b1-3)Gal(b1-4)GlcNAc(b1-3)Gal(b1-4)GlcNAc(b1-2)Man(a1-3)[Gal(b1-4)GlcNAc(b1-3)Gal(b1-4)GlcNAc(b1-3)Gal(b1-4)GlcNAc(b1-2)Man(a1-6)]Man(b1-4)GlcNAc(b1-4)[Fuc(a1-6)]GlcNAc
In short: as §1

[21] = target: Gal(b1-4)GlcNAc(b1-3)Gal(b1-4)GlcNAc(b1-3)Gal(b1-4)GlcNAc(b1-2)[Gal(b1-4)GlcNAc(b1-3)Gal(b1-4)GlcNAc(b1-3)Gal(b1-4)GlcNAc(b1-6)]Man(a1-6)[Gal(b1-4)GlcNAc(b1-3)Gal(b1-4)GlcNAc(b1-3)Gal(b1-4)GlcNAc(b1-2)Man(a1-3)]Man(b1-4)GlcNAc(b1-4)[Fuc(a1-6)]GlcNAc
In short: as §1

[22] = target: Gal(b1-4)GlcNAc(b1-3)Gal(b1-4)GlcNAc(b1-3)Gal(b1-4)GlcNAc(b1-3)Gal(b1-4)GlcNAc(b1-2)Man(a1-3)[Gal(b1-4)GlcNAc(b1-3)Gal(b1-4)GlcNAc(b1-3)Gal(b1-4)GlcNAc(b1-3)Gal(b1-4)GlcNAc(b1-2)Man(a1-6)]Man(b1-4)GlcNAc(b1-4)GlcNAc
In short: as §1

B1: Aap arpt (Staphylococcus epidermidis) (protein)
chain: NNEAPQMSSTLQAEEGSNAEAPQSEPTKAEEGGNAEAAQSEPTKAEEGGNAEAPQSEPTKAEEGGNAEAAQSEPTKTEEGSNVKAAQSEPTKAEEGSNAEAPQSEPTKTEEGSNAKAAQSEPTKAEEGGNAEAAQSEPTKTEEGSNAEAPQSEPTKAEEGGYAEAPQSEPTKTEEGGNAEAPNVPTIKA
Question: With B1 as the binder, how does the “glycan array binding signal (z-score)” value [1] read?
Answer: Its value is -0.99.

Question: What about the “glycan array binding signal (z-score)” value [2] of the same binder?
Answer: The value was 1.34.

Question: What about the “glycan array binding signal (z-score)” value [3] of the same binder?
Answer: The value was -0.745.

Question: And the “glycan array binding signal (z-score)” value [4]?
Answer: Its value is -0.56.

Question: What about the “glycan array binding signal (z-score)” value [5] of the same binder?
Answer: The value was -1.6.

Question: And the “glycan array binding signal (z-score)” value [6]?
Answer: The value was 0.416.

Question: And the “glycan array binding signal (z-score)” value [7]?
Answer: The value was 1.91.

Question: And the “glycan array binding signal (z-score)” value [8]?
Answer: Its value is 0.052.

Question: What about the “glycan array binding signal (z-score)” value [9] of the same binder?
Answer: Its value is -1.73.

Question: What about the “glycan array binding signal (z-score)” value [10] of the same binder?
Answer: The value was 1.03.

Question: And the “glycan array binding signal (z-score)” value [11]?
Answer: Its value is -0.528.

Question: What about the “glycan array binding signal (z-score)” value [12] of the same binder?
Answer: Its value is 0.371.

Question: And the “glycan array binding signal (z-score)” value [13]?
Answer: Its value is 0.925.

Question: What about the “glycan array binding signal (z-score)” value [14] of the same binder?
Answer: The value was 0.902.

Question: And the “glycan array binding signal (z-score)” value [15]?
Answer: The value was 1.35.

Question: And the “glycan array binding signal (z-score)” value [16]?
Answer: Its value is 0.268.

Question: And the “glycan array binding signal (z-score)” value [17]?
Answer: Its value is 1.7.

Question: What about the “glycan array binding signal (z-score)” value [18] of the same binder?
Answer: The value was 0.873.

Question: And the “glycan array binding signal (z-score)” value [19]?
Answer: The value was 0.851.

Question: What about the “glycan array binding signal (z-score)” value [20] of the same binder?
Answer: Its value is 2.73.

Question: What about the “glycan array binding signal (z-score)” value [21] of the same binder?
Answer: The value was 1.86.

Question: What about the “glycan array binding signal (z-score)” value [22] of the same binder?
Answer: The value was 0.057.
